Laboratory results reported in patent US20070015132A1 (priority 2001, published 2007).

Tested on: Mouse fibroblast cells (ATCC CRL-10225)
Assay type: cell-based

[F-].[Na+] [fluoride, sodium fluoride]
effect on medium acidification rate: inhibit
